Data as given in PubChem BioAssay AID743121 (NCATS, 2013).
Shown is an unselected part of about 26,000 reagents. 167 of all reagents (0.63%) count as active. 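Calls are per gene from RSA p-values that are not deposited; an individual active-marked siRNA can sensitise only weakly.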 Reagents against one gene are numbered here. Further read-outs or replicates are left out here.

Purpose: 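Genes whose silencing strengthens cell killing by camptothecin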 (primary screen)
Cells: MDA-MB-231 cells, a human breast cancer line
Reagent: single siRNA against human genes, 20 nM siRNA (0.8 pmol per well)
Timing: 120 h (drug added 48 h after transfection, read 72 h later)
Conditions: camptothecin 20 nM (about EC30) for 72 h; vehicle 0.1% DMSO in parallel plates
Detection: 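CellTiter-Glo ATP signal, scaled to control siRNA as percent viability; sensitisation given as log2 of untreated divided by camptothecin-treated viability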
Reading the numbers: log2 vehicle/camptothecin viability: higher = stronger sensitisation to camptothecin; viability with camptothecin: higher = more viable cells
Hit rule: 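Each gene scored by redundant siRNA activity (RSA) over its individual siRNA ratios; a gene is called active at p < 0.001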

| gene knocked down | reagent | log2 vehicle/camptothecin viability | viability with camptothecin (% of control) | call |
| --- | --- | --- | --- | --- |
| ALDH1A2 (GeneID 8854) | 1 | -0.224 | 134 | inactive |
| ALDH1A2 (GeneID 8854) | 2 | -0.132 | 49.5 | inactive |
| ALDH1A2 (GeneID 8854) | 3 | 0.0242 | 62.2 | inactive |
| ALDH1A2 (GeneID 8854) | 4 | -0.098 | 96.6 | inactive |
| ALDH1A2 (GeneID 8854) | 5 | -0.242 | 102 | inactive |
| ALDH1A2 (GeneID 8854) | 6 | 0.853 | 30.7 | inactive |
| CPS1 (GeneID 1373) | 1 | -0.514 | 53.3 | inactive |
| CPS1 (GeneID 1373) | 2 | -0.0801 | 52.3 | inactive |
| CPS1 (GeneID 1373) | 3 | -0.0925 | 119 | inactive |
| CPS1 (GeneID 1373) | 4 | -0.135 | 46.4 | inactive |
| RGS3 (GeneID 5998) | 1 | 0.305 | 53.4 | inactive |
| RGS3 (GeneID 5998) | 2 | -0.343 | 34.3 | inactive |
| RGS3 (GeneID 5998) | 3 | -0.443 | 107 | inactive |
| RGS3 (GeneID 5998) | 4 | -0.41 | 110 | inactive |
| RGS3 (GeneID 5998) | 5 | -0.0918 | 107 | inactive |
| RGS3 (GeneID 5998) | 6 | 0.428 | 18.8 | inactive |
| RGS3 (GeneID 5998) | 7 | -0.103 | 102 | inactive |
| RGS3 (GeneID 5998) | 8 | -0.342 | 100 | inactive |
| GNG2 (GeneID 54331) | 1 | 0.559 | 66.3 | inactive |
| GNG2 (GeneID 54331) | 2 | -0.681 | 85.1 | inactive |
| GNG2 (GeneID 54331) | 3 | -0.469 | 98.6 | inactive |
| GNG2 (GeneID 54331) | 4 | -0.183 | 71.8 | inactive |
| RTP2 (GeneID 344892) | 1 | -0.172 | 98.1 | inactive |
| RTP2 (GeneID 344892) | 2 | -0.276 | 64.3 | inactive |
| RTP2 (GeneID 344892) | 3 | -0.33 | 89 | inactive |

No new results follow: an excerpt of the list.
| gene knocked down | reagent | log2 vehicle/camptothecin viability | viability with camptothecin (% of control) | call |
| --- | --- | --- | --- | --- |
| GNG2 (GeneID 54331) | 2 | -0.681 | 85.1 | inactive |
| GNG2 (GeneID 54331) | 3 | -0.469 | 98.6 | inactive |
| GNG2 (GeneID 54331) | 4 | -0.183 | 71.8 | inactive |
| RTP2 (GeneID 344892) | 1 | -0.172 | 98.1 | inactive |
| RTP2 (GeneID 344892) | 2 | -0.276 | 64.3 | inactive |
| RTP2 (GeneID 344892) | 3 | -0.33 | 89 | inactive |

The list goes on.
| gene knocked down | reagent | log2 vehicle/camptothecin viability | viability with camptothecin (% of control) | call |
| --- | --- | --- | --- | --- |
| CNTFR (GeneID 1271) | 1 | -0.362 | 52.5 | inactive |
| CNTFR (GeneID 1271) | 2 | 0.37 | 68.8 | inactive |
| CNTFR (GeneID 1271) | 3 | -0.307 | 21.4 | inactive |
| CNTFR (GeneID 1271) | 4 | -0.261 | 96.6 | inactive |
| EPX (GeneID 8288) | 1 | -0.0206 | 91.5 | inactive |
| EPX (GeneID 8288) | 2 | -0.18 | 94.7 | inactive |
| EPX (GeneID 8288) | 3 | 0.243 | 72.3 | inactive |
| EPX (GeneID 8288) | 4 | 1.28 | 34.8 | inactive |
| DCHS2 (GeneID 54798) | 1 | -0.0107 | 110 | inactive |
| DCHS2 (GeneID 54798) | 2 | 0.298 | 84 | inactive |
| DCHS2 (GeneID 54798) | 3 | -0.813 | 80.2 | inactive |
| DCHS2 (GeneID 54798) | 4 | 0.00097 | 32.9 | inactive |
| ANG (GeneID 283) | 1 | -0.0129 | 48.9 | inactive |
| ANG (GeneID 283) | 2 | 0.248 | 64.1 | inactive |
| ANG (GeneID 283) | 3 | 0.741 | 37.8 | inactive |
| ANG (GeneID 283) | 4 | -0.13 | 109 | inactive |
| CORIN (GeneID 10699) | 1 | 0.0159 | 74.1 | inactive |
| CORIN (GeneID 10699) | 2 | 0.15 | 49.8 | inactive |
| CORIN (GeneID 10699) | 3 | 0.24 | 39 | inactive |
| CORIN (GeneID 10699) | 4 | -0.171 | 65.1 | inactive |
| TNFRSF25 (GeneID 8718) | 1 | -0.045 | 109 | inactive |
| TNFRSF25 (GeneID 8718) | 2 | -0.273 | 107 | inactive |
| TNFRSF25 (GeneID 8718) | 3 | -0.191 | 82.7 | inactive |
| TNFRSF25 (GeneID 8718) | 4 | -0.116 | 59.2 | inactive |
| TNFRSF25 (GeneID 8718) | 5 | -0.0951 | 75.1 | inactive |
| TNFRSF25 (GeneID 8718) | 6 | -0.311 | 36.5 | inactive |
| IFFO1 (GeneID 25900) | 1 | -0.0555 | 81.2 | inactive |
| IFFO1 (GeneID 25900) | 2 | 0.688 | 19.2 | inactive |
| IFFO1 (GeneID 25900) | 3 | -0.416 | 71.3 | inactive |
| IFFO1 (GeneID 25900) | 4 | -0.0103 | 63.8 | inactive |
| PAQR4 (GeneID 124222) | 1 | -0.0878 | 80.6 | inactive |
| PAQR4 (GeneID 124222) | 2 | 0.353 | 67.9 | inactive |
| PAQR4 (GeneID 124222) | 3 | -0.271 | 30.3 | inactive |
| PAQR4 (GeneID 124222) | 4 | -0.38 | 50 | inactive |
| AXIN1 (GeneID 8312) | 1 | 0.287 | 73.3 | inactive |
| AXIN1 (GeneID 8312) | 2 | -0.329 | 81 | inactive |
| AXIN1 (GeneID 8312) | 3 | 0.378 | 45.3 | inactive |
| AXIN1 (GeneID 8312) | 4 | -0.017 | 24.4 | inactive |
| TAB1 (GeneID 10454) | 1 | 0.301 | 38.9 | inactive |
| TAB1 (GeneID 10454) | 2 | 0.0242 | 62.3 | inactive |
| TAB1 (GeneID 10454) | 3 | -0.0116 | 48.9 | inactive |
| TAB1 (GeneID 10454) | 4 | -0.193 | 71.6 | inactive |
| WDR3 (GeneID 10885) | 1 | -0.15 | 102 | inactive |
| WDR3 (GeneID 10885) | 2 | -0.43 | 74.6 | inactive |
| WDR3 (GeneID 10885) | 3 | -0.283 | 37.1 | inactive |
| WDR3 (GeneID 10885) | 4 | -0.237 | 68.6 | inactive |
